According to patent publication US20210251983A1, “METHODS OF TREATMENT WITH BUPRENORPHINE” (BioDelivery Sciences International, Inc., priority 2020, published 2021):
At least one read-out could not be matched to a standard name with certainty.

Experiment: Pharmacokinetic assessment - abuse quotient (plasma Cmax, Tmax, AUC0-last, AQ)
Conditions: all doses tested (BBF up to 900 μg; IR oxycodone 30, 60 mg)

For COc1ccc2c3c1O[C@H]1C(=O)CC[C@@]4(O)[C@@H](C2)N(C)CC[C@]314.Cl [IR Oxycodone, oxycodone hydrochloride], which “abuse quotient (AQ, Cmax/Tmax) across doses” value is on record?
Its value is “high AQ that increased more prominently with increasing dose”.
